Laboratory results reported in PMC7857027.

The chains behind the UniProt entries cited, without tags or fusion partners.
UniProt P14902: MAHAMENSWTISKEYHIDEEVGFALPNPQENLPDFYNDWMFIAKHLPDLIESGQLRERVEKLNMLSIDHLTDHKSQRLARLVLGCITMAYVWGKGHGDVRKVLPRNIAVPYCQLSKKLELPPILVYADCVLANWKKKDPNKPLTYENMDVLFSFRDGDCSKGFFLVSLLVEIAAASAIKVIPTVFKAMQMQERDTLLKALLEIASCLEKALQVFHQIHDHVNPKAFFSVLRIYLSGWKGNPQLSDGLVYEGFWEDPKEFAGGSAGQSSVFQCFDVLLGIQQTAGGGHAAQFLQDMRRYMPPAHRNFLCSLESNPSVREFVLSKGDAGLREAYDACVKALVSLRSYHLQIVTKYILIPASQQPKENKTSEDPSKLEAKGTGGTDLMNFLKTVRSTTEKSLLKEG

Target: Flag-tagged IDO1 (indoleamine 2,3-dioxygenase 1) (UniProt P14902)
Assay: affinity purification with mass spectrometry; A549 cells transfected with Flag-IDO1; extracts in 0.2 mM EDTA, 50 mM Tris-HCl, 150 mM NaCl, 0.3% NP-40; anti-Flag affinity beads at 4°C overnight, elution with Flag peptide, 10% SDS-PAGE, silver staining, band identified by mass spectrometry

B1: GBP1 (protein, UniProt P32455 1-592)
chain: MASEIHMTGPMCLIENTNGRLMANPEALKILSAITQPMVVVAIVGLYRTGKSYLMNKLAGKKKGFSLGSTVQSHTKGIWMWCVPHPKKPGHILVLLDTEGLGDVEKGDNQNDSWIFALAVLLSSTFVYNSIGTINQQAMDQLYYVTELTHRIRSKSSPDENENEVEDSADFVSFFPDFVWTLRDFSLDLEADGQPLTPDEYLTYSLKLKKGTSQKDETFNLPRLCIRKFFPKKKCFVFDRPVHRRKLAQLEKLQDEELDPEFVQQVADFCSYIFSNSKTKTLSGGIQVNGPRLESLVLTYVNAISSGDLPCMENAVLALAQIENSAAVQKAIAHYEQQMGQKVQLPTETLQELLDLHRDSEREAIEVFIRSSFKDVDHLFQKELAAQLEKKRDDFCKQNQEASSDRCSALLQVIFSPLEEEVKAGIYSKPGGYRLFVQKLQDLKKKYYEEPRKGIQAEEILQTYLKSKESMTDAILQTDQTLTEKEKEIEVERVKAESAQASAKMLQEMQRKNEQMMEQKERSYQEHLKQLTEKMENDRVQLLKEQERTLALKLQEQEQLLKEGFQKESRIMKNEIQDLQTKMRRRKACTIS
- binding: binds

No constants are given. Whether binding was seen depends on the method and setting. In cells and extracts the contact can be indirect. These calls come from enrichment with a bait or labelling near it, and not all partners need be listed.
